Results: the M2OR odorant receptor database
The entries are a selection whose mix differs from that of the whole data set. The calls were merged from several studies; some rest on single wells. Some of the results follow.

Experiments:
Conditions in all cases: stereoisomer not certain
[1] = biological target: T1, OR5M11 (Homo sapiens) (UniProt Q96RB7)
T1 sequence (whole entry): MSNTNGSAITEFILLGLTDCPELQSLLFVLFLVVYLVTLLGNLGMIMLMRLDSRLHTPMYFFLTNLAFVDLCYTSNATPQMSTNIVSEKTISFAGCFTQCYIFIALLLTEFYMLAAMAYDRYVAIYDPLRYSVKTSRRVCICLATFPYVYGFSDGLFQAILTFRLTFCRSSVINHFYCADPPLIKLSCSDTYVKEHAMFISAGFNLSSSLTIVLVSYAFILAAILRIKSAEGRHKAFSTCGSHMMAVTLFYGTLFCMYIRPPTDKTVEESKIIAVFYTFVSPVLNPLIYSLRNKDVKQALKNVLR
Procedure, shortened: (§1)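 Values were gathered from published papers (main text and supplementary material), with extra details requested from the original authors when needed, and checked for typos and inconsistencies. Each receptor–molecule pair is called responsive (active) if the original authors judged the measured signal statistically different from baseline, and non-responsive (inactive) otherwise. Assay methods varied by source, often transient mammalian cell-line luciferase assays. Recorded details include cell line, G-protein, co-transfected protein and tags.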

[2] = system: T2, OR5M1
T2 sequence (whole entry): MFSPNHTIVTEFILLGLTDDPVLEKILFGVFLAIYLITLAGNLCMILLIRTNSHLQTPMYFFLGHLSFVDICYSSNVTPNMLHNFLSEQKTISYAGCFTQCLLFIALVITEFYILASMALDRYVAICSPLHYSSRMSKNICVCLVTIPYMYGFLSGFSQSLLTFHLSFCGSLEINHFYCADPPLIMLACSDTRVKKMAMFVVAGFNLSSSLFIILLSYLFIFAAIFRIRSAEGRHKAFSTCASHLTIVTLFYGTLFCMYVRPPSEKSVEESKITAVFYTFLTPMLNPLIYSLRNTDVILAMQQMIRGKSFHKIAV
Procedure, shortened: as §1

[3] = biological target: T3, OR5M3 (Homo sapiens) (UniProt Q8NGP4)
T3 sequence (whole entry): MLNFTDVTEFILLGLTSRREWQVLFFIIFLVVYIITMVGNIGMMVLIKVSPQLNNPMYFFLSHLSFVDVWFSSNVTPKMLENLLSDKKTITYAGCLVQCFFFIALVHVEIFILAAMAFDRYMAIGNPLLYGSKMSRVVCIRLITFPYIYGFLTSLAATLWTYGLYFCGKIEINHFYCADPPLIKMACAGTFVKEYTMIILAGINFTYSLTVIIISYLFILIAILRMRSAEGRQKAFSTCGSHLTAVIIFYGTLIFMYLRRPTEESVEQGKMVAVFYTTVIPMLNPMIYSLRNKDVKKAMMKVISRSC
Procedure, shortened: as §1

[4] = biological target: T4, OR5M8 (Homo sapiens) (UniProt Q8NGP6)
T4 sequence (whole entry): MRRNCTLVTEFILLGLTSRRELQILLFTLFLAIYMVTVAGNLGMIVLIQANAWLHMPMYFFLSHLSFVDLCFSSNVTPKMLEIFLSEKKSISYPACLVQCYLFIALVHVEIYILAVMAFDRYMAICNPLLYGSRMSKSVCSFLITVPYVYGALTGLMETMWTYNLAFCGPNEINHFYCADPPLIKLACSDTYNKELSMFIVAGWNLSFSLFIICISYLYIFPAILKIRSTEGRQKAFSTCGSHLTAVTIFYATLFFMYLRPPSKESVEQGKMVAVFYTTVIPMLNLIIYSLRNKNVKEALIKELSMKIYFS
Procedure, shortened: as §1

[5] = biological target: T5, OR5M9 (Homo sapiens) (UniProt Q8NGP3)
T5 sequence (whole entry): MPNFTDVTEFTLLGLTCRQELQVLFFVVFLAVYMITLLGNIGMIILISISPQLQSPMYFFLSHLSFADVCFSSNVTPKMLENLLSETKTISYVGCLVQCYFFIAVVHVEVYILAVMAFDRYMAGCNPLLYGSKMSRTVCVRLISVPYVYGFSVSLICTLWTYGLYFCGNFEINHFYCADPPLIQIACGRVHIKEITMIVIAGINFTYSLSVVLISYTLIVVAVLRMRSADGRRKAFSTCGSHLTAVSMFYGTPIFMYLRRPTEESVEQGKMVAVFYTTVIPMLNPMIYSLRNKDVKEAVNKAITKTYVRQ
Procedure, shortened: as §1

[6] = system: T6, OR5MA
T6 sequence (whole entry): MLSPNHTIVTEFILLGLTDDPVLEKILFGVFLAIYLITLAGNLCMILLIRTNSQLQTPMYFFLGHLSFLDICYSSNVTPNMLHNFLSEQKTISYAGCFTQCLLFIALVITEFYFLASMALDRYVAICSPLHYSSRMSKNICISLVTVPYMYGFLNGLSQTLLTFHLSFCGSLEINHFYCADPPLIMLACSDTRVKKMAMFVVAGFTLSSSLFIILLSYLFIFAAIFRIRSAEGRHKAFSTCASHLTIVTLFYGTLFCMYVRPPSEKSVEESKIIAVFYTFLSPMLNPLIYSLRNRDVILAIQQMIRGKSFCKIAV
Procedure, shortened: as §1

[7] = biological target: T7, OR5P2 (Homo sapiens) (UniProt Q8WZ92)
T7 sequence (whole entry): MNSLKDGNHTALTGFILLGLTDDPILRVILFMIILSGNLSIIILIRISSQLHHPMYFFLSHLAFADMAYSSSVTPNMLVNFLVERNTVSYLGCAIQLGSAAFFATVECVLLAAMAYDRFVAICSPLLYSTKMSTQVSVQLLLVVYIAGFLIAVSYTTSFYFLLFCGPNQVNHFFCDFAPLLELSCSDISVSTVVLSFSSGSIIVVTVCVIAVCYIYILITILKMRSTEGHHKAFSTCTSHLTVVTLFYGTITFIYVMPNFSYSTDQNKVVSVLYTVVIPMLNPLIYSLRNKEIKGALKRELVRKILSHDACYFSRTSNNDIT
Procedure, shortened: as §1

[8] = biological target: T8, OR5P3 (Homo sapiens) (UniProt Q8WZ94)
T8 sequence (whole entry): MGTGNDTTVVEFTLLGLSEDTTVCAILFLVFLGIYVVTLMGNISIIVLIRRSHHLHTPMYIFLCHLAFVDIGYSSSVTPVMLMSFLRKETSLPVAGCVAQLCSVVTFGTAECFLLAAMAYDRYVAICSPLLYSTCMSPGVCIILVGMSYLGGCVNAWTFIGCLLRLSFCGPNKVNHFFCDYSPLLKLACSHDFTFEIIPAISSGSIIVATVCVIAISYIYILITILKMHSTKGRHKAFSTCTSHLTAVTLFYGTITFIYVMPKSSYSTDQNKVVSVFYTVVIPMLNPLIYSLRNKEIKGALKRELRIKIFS
Procedure, shortened: as §1

[9] = system: T9, OR5R1
T9 sequence (whole entry): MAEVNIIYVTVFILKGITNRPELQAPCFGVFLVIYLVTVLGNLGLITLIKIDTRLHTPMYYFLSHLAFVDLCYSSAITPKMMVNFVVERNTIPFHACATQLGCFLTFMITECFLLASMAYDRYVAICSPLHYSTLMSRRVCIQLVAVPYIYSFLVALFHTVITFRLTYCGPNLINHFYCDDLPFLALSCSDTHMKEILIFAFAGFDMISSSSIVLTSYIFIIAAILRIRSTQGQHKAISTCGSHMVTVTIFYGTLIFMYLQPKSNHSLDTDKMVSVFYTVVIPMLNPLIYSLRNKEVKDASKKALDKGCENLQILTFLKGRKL
Procedure, shortened: as §1

[10] = biological target: T10, OR5T1 (Homo sapiens) (UniProt Q8NG75)
T10 sequence (whole entry): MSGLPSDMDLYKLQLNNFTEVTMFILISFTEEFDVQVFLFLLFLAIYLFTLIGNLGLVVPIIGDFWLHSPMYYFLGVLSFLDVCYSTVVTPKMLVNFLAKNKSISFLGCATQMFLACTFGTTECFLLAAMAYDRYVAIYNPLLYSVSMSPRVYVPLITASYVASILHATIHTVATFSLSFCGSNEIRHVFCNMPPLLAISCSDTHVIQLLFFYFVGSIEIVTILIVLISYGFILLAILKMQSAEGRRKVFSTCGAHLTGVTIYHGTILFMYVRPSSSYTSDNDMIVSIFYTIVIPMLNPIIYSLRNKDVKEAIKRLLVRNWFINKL
Procedure, shortened: as §1

[11] = system: T11, OR5T1
T11 sequence (whole entry): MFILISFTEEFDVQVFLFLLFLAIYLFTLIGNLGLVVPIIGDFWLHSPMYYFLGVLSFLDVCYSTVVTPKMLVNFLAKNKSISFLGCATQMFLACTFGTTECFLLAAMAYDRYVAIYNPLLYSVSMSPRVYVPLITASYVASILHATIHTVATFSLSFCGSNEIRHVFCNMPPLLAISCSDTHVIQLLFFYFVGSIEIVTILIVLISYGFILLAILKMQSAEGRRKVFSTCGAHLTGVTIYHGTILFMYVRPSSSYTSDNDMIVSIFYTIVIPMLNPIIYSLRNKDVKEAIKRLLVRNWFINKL
Procedure, shortened: as §1

[12] = system: T12, OR5T2
T12 sequence (whole entry): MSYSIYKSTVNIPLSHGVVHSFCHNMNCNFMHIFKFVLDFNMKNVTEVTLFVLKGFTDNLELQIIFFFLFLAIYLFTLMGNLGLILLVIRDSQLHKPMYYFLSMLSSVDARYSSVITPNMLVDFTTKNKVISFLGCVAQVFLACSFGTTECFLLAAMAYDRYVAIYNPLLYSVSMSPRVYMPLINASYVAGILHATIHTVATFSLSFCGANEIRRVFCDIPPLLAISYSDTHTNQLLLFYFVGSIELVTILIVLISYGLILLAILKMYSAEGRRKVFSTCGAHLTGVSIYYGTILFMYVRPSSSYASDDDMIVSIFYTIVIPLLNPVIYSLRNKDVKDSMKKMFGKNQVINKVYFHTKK
Procedure, shortened: as §1

[13] = system: T13, OR5T2; remark: listed apart in the source
T13 sequence (whole entry): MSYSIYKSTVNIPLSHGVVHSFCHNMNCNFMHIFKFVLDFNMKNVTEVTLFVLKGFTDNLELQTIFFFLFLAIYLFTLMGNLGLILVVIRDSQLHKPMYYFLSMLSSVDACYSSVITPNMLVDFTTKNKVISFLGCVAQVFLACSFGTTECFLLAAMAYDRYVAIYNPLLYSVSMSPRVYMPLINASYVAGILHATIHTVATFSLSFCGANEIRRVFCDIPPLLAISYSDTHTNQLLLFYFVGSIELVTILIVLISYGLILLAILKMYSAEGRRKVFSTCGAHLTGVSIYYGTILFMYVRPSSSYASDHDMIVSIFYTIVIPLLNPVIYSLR
Procedure, shortened: as §1

[14] = system: T14, OR5T3
T14 sequence (whole entry): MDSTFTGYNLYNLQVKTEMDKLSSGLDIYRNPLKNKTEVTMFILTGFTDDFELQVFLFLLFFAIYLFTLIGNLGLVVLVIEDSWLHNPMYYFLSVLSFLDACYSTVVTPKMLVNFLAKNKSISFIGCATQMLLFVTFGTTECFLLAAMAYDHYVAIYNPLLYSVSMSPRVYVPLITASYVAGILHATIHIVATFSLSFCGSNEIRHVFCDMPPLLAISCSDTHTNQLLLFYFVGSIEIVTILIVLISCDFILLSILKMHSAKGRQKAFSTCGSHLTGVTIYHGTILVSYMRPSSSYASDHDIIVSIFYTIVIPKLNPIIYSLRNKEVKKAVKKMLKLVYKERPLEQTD
Procedure, shortened: as §1

[15] = biological target: T15, OR5V1 (Homo sapiens) (UniProt Q9UGF6)
T15 sequence (whole entry): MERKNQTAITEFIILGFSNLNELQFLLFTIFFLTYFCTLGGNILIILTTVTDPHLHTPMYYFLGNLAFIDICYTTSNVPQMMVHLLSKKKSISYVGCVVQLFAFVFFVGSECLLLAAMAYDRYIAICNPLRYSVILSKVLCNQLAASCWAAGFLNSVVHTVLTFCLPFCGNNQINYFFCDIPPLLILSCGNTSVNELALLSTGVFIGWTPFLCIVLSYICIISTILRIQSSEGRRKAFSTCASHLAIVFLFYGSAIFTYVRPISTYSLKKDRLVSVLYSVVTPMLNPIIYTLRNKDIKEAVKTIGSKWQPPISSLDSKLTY
Procedure, shortened: as §1

[16] = system: T16, OR5W2
T16 sequence (whole entry): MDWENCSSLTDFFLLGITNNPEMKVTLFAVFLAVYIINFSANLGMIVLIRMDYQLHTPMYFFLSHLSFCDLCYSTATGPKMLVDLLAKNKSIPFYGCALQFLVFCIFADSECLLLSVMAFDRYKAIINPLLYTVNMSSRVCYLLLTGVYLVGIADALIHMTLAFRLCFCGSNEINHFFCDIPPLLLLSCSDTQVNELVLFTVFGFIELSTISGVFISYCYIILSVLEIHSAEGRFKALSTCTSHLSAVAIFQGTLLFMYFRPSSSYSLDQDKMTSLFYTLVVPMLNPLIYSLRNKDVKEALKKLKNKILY
Procedure, shortened: as §1

[17] = biological target: T17, OR6A2 (Homo sapiens) (UniProt O95222)
T17 sequence (whole entry): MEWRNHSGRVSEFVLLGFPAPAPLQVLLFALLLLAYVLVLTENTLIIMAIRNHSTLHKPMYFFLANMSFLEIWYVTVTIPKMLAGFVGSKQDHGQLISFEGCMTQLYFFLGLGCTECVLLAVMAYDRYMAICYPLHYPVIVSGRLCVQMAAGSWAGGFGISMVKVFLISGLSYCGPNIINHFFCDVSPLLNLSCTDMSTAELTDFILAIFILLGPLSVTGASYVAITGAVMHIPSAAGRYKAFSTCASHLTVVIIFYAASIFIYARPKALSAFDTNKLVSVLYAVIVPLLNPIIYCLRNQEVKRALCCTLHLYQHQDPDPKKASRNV
Procedure, shortened: as §1

Measured: odorant receptor agonist call

CCCC(=O)O
inactive: all assays above

CCCCCCCCCC=O
inactive: all assays above

COc1cc(C)ccc1O
inactive: all assays above

CC12CCC(C1)C(C)(C)C2=O (stereo not drawn)
inactive: all assays above
